Test results published in the supplement of paper PMC12067093, “Discovery and optimisation of a covalent ligand for TRIM25 and its application to targeted protein ubiquitination” (Chemical Science, 2025).
This is one part of the list.

Protein sequences, listed by entry. Tags and fused reporters are not part of them. Lines headed by an entry give the natural chain unless they say otherwise; changes in a name come on top.
UniProt Q9BXR0: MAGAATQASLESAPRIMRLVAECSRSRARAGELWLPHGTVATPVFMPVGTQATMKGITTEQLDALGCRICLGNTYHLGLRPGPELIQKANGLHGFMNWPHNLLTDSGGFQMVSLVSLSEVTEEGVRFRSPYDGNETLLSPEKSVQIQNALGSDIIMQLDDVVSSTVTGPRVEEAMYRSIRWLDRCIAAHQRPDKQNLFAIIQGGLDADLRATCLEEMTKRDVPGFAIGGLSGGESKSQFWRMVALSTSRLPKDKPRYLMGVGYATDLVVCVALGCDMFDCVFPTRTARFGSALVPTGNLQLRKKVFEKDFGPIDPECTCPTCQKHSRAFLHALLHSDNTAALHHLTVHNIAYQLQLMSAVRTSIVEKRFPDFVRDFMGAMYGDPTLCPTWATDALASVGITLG
UniProt Q7Z6M1: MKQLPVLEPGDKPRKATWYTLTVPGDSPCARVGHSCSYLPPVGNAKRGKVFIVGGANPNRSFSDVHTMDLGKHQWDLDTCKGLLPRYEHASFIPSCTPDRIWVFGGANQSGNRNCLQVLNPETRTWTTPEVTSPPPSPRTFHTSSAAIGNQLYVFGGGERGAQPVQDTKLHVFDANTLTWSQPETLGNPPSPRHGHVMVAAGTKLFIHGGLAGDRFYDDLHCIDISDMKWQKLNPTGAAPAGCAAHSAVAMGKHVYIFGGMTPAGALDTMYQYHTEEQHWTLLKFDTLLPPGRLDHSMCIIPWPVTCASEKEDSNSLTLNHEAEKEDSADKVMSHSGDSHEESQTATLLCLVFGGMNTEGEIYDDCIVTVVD
UniProt O14966: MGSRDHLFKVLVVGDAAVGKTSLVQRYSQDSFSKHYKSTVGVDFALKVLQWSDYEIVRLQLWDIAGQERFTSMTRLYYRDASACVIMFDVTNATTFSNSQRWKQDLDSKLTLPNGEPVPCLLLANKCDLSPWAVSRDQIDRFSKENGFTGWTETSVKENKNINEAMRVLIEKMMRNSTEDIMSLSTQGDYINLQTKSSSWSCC
UniProt P06737: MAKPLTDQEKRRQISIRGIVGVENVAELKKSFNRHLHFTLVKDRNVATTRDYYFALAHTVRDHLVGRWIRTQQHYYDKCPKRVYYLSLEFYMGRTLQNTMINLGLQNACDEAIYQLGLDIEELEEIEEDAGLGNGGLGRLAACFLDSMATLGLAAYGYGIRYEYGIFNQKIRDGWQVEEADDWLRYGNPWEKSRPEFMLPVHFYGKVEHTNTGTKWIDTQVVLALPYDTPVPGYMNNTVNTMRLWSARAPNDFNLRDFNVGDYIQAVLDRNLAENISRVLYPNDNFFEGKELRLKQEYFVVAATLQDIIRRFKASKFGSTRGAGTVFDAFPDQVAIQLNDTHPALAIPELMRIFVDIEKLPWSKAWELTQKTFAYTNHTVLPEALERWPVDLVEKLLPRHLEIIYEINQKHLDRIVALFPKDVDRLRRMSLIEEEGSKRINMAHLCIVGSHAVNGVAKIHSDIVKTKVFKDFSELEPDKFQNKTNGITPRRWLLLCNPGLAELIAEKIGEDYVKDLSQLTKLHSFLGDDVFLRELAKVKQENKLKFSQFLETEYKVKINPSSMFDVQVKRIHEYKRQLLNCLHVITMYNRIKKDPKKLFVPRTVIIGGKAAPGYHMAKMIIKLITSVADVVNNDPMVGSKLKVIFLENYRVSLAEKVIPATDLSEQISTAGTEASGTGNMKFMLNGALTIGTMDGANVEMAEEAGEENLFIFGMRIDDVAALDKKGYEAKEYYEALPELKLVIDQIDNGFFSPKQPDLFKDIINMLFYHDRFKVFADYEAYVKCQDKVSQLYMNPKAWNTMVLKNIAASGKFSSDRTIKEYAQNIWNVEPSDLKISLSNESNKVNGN
UniProt Q2TAL8: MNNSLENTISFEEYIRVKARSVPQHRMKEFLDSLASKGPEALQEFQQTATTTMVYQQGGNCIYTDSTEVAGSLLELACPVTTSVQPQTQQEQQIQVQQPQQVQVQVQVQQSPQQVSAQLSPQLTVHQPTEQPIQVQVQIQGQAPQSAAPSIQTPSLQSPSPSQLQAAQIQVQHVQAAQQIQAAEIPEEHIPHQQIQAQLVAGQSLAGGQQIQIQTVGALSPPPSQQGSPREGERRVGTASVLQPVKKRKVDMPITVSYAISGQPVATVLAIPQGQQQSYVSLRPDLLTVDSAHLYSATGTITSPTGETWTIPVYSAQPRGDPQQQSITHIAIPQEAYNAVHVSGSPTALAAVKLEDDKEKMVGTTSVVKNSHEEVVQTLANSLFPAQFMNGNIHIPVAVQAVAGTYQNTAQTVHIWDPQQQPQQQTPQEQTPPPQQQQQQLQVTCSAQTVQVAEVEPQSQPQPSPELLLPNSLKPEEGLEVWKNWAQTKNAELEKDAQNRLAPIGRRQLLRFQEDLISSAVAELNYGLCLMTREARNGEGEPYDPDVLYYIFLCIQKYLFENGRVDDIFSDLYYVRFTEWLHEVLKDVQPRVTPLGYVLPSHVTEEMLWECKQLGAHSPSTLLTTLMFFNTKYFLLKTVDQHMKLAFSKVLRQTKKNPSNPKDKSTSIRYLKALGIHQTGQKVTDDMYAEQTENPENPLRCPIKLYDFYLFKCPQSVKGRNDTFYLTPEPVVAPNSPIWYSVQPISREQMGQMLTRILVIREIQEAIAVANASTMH
UniProt Q9Y3T6: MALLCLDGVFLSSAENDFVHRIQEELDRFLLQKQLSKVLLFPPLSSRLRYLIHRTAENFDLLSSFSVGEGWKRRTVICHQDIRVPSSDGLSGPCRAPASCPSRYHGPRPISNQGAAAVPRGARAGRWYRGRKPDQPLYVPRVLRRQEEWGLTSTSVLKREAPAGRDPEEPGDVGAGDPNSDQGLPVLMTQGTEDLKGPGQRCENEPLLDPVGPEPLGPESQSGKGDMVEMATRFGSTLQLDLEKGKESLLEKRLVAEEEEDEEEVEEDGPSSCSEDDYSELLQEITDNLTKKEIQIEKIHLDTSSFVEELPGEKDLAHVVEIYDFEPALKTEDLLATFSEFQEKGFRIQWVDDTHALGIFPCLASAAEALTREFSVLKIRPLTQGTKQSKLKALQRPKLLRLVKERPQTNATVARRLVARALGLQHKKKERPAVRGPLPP
UniProt O95716: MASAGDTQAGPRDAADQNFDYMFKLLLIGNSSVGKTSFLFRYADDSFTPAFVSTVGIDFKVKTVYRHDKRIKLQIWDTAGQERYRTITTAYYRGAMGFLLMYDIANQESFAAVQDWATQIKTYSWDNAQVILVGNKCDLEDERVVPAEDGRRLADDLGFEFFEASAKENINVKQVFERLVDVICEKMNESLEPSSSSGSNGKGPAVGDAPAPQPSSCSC
UniProt Q15276: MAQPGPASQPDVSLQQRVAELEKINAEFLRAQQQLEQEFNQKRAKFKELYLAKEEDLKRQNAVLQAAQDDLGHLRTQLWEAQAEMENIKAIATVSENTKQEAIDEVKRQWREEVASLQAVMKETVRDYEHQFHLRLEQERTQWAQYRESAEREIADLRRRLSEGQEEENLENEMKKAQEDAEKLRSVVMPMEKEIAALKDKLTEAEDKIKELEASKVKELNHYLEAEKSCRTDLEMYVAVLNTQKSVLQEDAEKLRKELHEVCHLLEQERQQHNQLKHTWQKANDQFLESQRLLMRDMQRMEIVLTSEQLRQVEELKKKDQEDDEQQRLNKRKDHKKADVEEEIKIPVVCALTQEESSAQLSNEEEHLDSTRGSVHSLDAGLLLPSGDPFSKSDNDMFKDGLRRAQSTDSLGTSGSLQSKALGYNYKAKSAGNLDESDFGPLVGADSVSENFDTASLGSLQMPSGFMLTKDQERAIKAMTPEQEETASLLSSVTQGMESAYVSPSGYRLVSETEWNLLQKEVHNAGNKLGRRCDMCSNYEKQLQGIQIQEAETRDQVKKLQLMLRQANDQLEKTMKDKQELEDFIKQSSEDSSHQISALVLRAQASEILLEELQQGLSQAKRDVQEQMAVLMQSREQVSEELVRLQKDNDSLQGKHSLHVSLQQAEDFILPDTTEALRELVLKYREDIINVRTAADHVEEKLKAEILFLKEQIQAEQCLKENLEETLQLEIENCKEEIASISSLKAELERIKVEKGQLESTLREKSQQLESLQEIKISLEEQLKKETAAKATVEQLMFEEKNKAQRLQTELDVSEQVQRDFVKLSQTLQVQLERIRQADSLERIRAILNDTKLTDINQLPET
UniProt Q9UBK7: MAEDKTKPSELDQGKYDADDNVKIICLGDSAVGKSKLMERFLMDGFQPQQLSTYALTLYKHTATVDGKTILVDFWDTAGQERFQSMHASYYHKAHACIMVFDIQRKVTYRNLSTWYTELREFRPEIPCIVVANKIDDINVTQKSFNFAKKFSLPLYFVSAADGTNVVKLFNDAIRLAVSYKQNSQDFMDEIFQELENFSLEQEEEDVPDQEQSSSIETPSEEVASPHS
UniProt Q9Y3P9: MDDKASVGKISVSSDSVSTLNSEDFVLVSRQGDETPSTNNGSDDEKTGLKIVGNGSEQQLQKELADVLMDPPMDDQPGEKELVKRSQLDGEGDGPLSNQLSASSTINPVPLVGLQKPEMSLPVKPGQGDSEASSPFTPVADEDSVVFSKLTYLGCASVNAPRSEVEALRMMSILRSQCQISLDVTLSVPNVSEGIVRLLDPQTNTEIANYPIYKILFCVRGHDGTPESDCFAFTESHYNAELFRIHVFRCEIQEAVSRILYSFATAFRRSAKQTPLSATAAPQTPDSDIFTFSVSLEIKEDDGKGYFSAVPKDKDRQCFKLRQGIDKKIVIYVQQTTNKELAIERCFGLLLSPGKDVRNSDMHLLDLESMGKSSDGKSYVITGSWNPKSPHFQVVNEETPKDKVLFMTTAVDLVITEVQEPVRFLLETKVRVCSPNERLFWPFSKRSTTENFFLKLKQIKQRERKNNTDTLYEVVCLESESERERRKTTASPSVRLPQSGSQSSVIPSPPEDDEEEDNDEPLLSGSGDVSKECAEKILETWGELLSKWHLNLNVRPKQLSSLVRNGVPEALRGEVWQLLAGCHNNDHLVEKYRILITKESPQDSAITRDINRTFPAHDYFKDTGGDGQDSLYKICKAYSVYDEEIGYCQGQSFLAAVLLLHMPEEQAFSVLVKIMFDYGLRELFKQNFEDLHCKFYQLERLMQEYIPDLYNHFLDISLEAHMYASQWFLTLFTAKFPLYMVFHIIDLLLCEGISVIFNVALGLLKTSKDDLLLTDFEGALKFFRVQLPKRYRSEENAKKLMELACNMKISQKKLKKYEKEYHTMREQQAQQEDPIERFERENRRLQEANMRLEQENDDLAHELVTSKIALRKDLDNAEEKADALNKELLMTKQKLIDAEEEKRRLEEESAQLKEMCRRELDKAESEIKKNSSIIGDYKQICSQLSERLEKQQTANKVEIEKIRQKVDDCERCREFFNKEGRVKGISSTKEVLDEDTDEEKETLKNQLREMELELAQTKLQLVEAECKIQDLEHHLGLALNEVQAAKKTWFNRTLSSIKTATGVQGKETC

Compound: Cc1cc(ccc1-c1ccccc1)C(=O)N1CCCN(CC1)C(=O)CCl [compound 10]
Assay: probe-labelled cysteine peptide fold change vs DMSO (competition) (log2 fold change); higher = less target engagement (more negative = stronger competition)
Settings: THP-1, incubation time: 4 h
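Further: competitive profiling in live THP-1 cells: cysteine peptides tagged with an iodoacetamide desthiobiotin (IA-DTB) probe, intensity after compound treatment relative to DMSO-treated cells.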

| Target | probe-labelled cysteine peptide fold change (10 µM) | probe-labelled cysteine peptide fold change (50 µM) |
| --- | --- | --- |
| QTRT1_Q9BXR0_23_LVAECSR (UniProt Q9BXR0) | 0.0605 | -0.0704 |
| RABEPK_Q7Z6M1_29_ATWYTLTVPGDSPCAR (UniProt Q7Z6M1) | -0.158 | 0.067 |
| RAB29_O14966_127_CDLSPWAVSR (UniProt O14966) | -0.0495 | 0.0455 |
| PYGL_P06737_496_WLLLCNPGLAELIAEK (UniProt P06737) | 0.0971 | 0.169 |
| QRICH1_Q2TAL8_713_CPQSVK (UniProt Q2TAL8) | -0.152 | -0.258 |
| R3HCC1_Q9Y3T6_78_TVICHQDIR (UniProt Q9Y3T6+R3HCC1) | -0.0761 | -0.152 |
| RAB3D_O95716_137_TYSWDNAQVILVGNKCDLEDER (UniProt O95716) | -0.156 | -0.412 |
| RAB3GAP1_Q15042_272_LPFGACEDPISELHLATTWPHLTEGIIVDNDVYSDLDPIQAPHWSVR (UniProt Q15042) | 0.292 | -0.041 |
| RABEP1_Q15276_718_EQIQAEQCLK (UniProt Q15276) | -0.0181 | 0.106 |
| RABL2A_Q9UBK7_128_EFRPEIPCIVVANK (UniProt Q9UBK7) | 0.0246 | 0.192 |
| QTRT1_Q9BXR0_319_DFGPIDPECTCPTCQK (UniProt Q9BXR0) | -0.262 | -0.146 |
| RABGAP1L_Q5R372_554_AEVWQLLAGCHDNQAMLDR (UniProt Q5R372) | 0.0933 | 0.133 |
| R3HCC1_Q9Y3T6_362_IQWVDDTHALGIFPCLASAAEALTR (UniProt Q9Y3T6+R3HCC1) | -0.281 | -0.617 |
| RABGAP1_Q9Y3P9_969_QKVDDCER (UniProt Q9Y3P9) | 0.14 | -0.388 |
